From PubChem BioAssay AID1671190 (National Center for Advancing Translational Sciences (NCATS), 2021)
Values joined by “and” are separate entries in the source; they are usually repeats but may differ in a detail not shown here. Equal values may be shown once. Hit rate of the full screen: of about 580,000 compounds, about 6,100 (1.1%) were called active. The shares of active, inactive and inconclusive entries below differ from those in the screen. Calls follow the shape of the dose curve; as a rule, active = well fitted inhibition curve with a large enough effect; inconclusive = small, poorly fitted or top-dose-only effect, or another doubt; inactive = no such curve, though single readings can be large or run the other way. Potencies beside an inconclusive call are fits to weak or partial responses and may not hold up.

Amino acid sequences for entries named in this document (tags omitted). A change or cut given only in a name is not applied to a line headed by its entry.
UniProt P18054: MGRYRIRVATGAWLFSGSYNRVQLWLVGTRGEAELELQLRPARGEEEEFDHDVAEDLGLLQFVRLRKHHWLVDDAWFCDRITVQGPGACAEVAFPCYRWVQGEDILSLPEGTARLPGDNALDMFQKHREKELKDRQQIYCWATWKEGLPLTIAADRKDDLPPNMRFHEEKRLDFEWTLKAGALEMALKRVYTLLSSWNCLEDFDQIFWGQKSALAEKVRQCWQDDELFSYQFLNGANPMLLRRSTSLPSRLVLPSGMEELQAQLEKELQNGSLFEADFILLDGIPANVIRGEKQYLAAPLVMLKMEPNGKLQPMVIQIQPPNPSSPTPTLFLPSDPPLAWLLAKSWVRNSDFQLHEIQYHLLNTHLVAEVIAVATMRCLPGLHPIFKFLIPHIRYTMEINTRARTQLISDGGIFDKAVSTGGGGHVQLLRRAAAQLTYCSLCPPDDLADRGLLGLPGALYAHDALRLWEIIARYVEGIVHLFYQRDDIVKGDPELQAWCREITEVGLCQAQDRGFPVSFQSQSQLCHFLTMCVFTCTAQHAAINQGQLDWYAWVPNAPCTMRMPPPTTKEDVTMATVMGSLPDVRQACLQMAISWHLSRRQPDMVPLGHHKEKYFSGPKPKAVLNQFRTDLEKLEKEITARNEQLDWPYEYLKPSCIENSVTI

What follows are compounds tested against Polyunsaturated fatty acid lipoxygenase ALOX12 (Homo sapiens) (UniProt P18054) (assay: Primary qHTS assay for inhibitors of human arachidonate 12S-lipoxygenase (ALOX12): Round 2). Conditions: purified 12hLO, xylenol orange hydroperoxide absorbance; series mostly up to 108 µM.
Method in brief: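 Purified human 12hLO at 150 nM in 25 mM Hepes, 0.01% Triton X-100, pH 7.0, preincubated 15 min at room temperature with compound. Reaction started with 40 uM arachidonic acid, 30 min at room temperature. Hydroperoxide measured by Fe-xylenol orange, 573/405 nm absorbance ratio.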
Potency is read from the fitted curve at half-maximal effect.

Structure (SMILES) | Potency
O=C(COC(=O)Cc1cccc(C(F)(F)F)c1)NCC1CCCO1 (stereo unspecified) | inconclusive: 31.6 µM [inhibitor, partial curve, poor fit]
CC(NC(=S)Nc1c(Br)cccc1OC(F)F)C(C)(C)C (stereo unspecified) | inconclusive: 56.2 µM [inhibitor, partial curve, poor fit]
Cn1c(=S)[nH]c2c(c1=O)C(C)(C)Cc1ccccc1-2 | active: 14.1 µM
Cc1cc(C(=O)OCC(=O)Nc2ccccc2C)c2ccccc2n1 | inconclusive: 44.7 µM [inhibitor, partial curve, poor fit]
N#C/C(=C\c1ccc(-c2ccccc2)o1)c1nc2ccccc2[nH]1 | inconclusive: 50.1 µM [inhibitor, single point]
O=C(COc1ccc2c(c1)CCC2)NC1CCS(=O)(=O)C1 (stereo unspecified) | inconclusive: 25.1 µM [inhibitor, partial curve]
CCOc1ccc(-c2nc(-c3nnn4c3COC(c3ccc(OC)cc3)C4)no2)cc1 (stereo unspecified) | inactive
COc1ccc(-c2noc(C3CCCN(C(=O)CCc4ccccc4)C3)n2)cc1 (stereo unspecified) | inactive
O=C1CCc2c(Cl)cc(Cl)c(O)c21 | active: 5.62 µM
COc1ccc(Nc2cc(C)nc(Nc3ccc(NC(=O)CC(C)(C)C)cc3)n2)cc1 | inconclusive: 89.1 µM [inhibitor, partial curve, poor fit]
O=C(O)c1ccc(COc2ccc3ccccc3c2)o1 | inactive
CCS(=O)(=O)Nc1ccc(C2(C(=O)NCC(C)C)CCCCC2)cc1 | inactive
O=C1Cc2c(-c3cccc4ccccc34)n[nH]c2CN1Cc1ccccc1 | inactive
O=C1c2cc(S(=O)(=O)N(CCO)CCO)ccc2-c2ccc(S(=O)(=O)N(CCO)CCO)cc21 | inconclusive: 126 µM [inhibitor, single point]
c1cncc(CNc2ncnc3ccc(-c4ccc5c(c4)OCO5)cc23)c1 | inactive
Cc1ccc(NC(=O)CN2C(=O)S/C(=C\c3cc(C)n(-c4ccc(C(=O)O)cc4)c3C)C2=O)cc1 | inconclusive: 100 µM [inhibitor, partial curve, poor fit]
Cc1cc(C)n(-c2ccc(C(=O)Nc3cccc(S(=O)(=O)N4CCCC4)c3)cc2)n1 | inconclusive: 79.4 µM [inhibitor, single point]
O=C(NCCSc1ncc(-c2ccc(F)cc2)[nH]1)c1ccco1 | inactive
Cc1ccccc1NC(=S)NC(NC(=O)COc1ccccc1)C(Cl)(Cl)Cl (stereo unspecified) | inconclusive: 56.2 µM [inhibitor, partial curve, poor fit]
COCCNc1nc(C)cc(-c2cc(C(=O)NCc3ccccc3)on2)n1 | inconclusive: 7.08 µM [inhibitor, partial curve, poor fit]
NC(=O)C1CCN(C(=O)c2ccc(Cl)c(S(=O)(=O)N3CCc4ccccc43)c2)CC1 | inconclusive: 126 µM [inhibitor, partial curve, poor fit]

Structure (SMILES) | Potency
C/C(=N/NC(=O)c1cc(-c2ccc(Br)s2)[nH]n1)c1ccco1 | inconclusive: 112 µM [inhibitor, partial curve, poor fit]
O=S(=O)(CC1NCc2cc(F)ccc21)NCc1ccccc1 (stereo unspecified) | inconclusive: 44.7 µM [inhibitor, single point]
Fc1ccc(/C=N/Nc2ccc(Cl)cc2)cc1F | inconclusive: 5.01 µM [inhibitor, full curve, poor fit]
O=[N+]([O-])c1ccccc1S(=O)(=O)N/C(=N/S(=O)(=O)c1ccccc1)c1ccccc1 | inactive
COc1ccc(N=N/C(=C\O)C(=O)c2ccco2)cc1 | inconclusive: 79.4 µM [inhibitor, single point]
C#CCOCCOCCOCCNc1nc(N2CCN(C(=O)[C@H]([C@@H](C)CC)n3cc(CCCN=C(N)N)nn3)CC2)nc(N2CCN(C(=O)[C@H](Cc3ccc(O)cc3)n3cc(CCO)nn3)CC2)n1 | inconclusive: 8.91 µM [inhibitor, full curve, poor fit]
CC(C)COc1ccc(/C(O)=C2/C(=O)C(=O)N(CCN(C)C)C2c2ccncc2)cc1 (stereo unspecified) | inconclusive: 28.2 µM [inhibitor, partial curve, poor fit]
COc1ccc(-n2c(SCC(=O)NCC3CCCO3)nc3c(c2=O)SC(C)C3)cc1 (stereo unspecified) | inconclusive: 31.6 µM [inhibitor, partial curve, poor fit]
COc1ccc2sc(C)[n+](C)c2c1 | inconclusive: 20 µM [inhibitor, partial curve, poor fit]
CCn1cc(C(=O)O)c(=O)c2ccc(C)nc21 | inactive and inconclusive: 10.2 µM [inhibitor, partial curve, poor fit] and inconclusive: 1.93 µM [inhibitor, full curve, poor fit]
Cc1cc(C)n(-c2ccc(C(=O)OCC(=O)NC(c3ccccc3)c3ccccc3)cc2)n1 | inconclusive: 112 µM [inhibitor, partial curve, poor fit]
C[S+](=O)([O-])N1CCCC2(C1)C(=NC1CCCC1)NC(=O)N2c1cc(F)cc(F)c1 (stereo unspecified) | active: 89.1 µM
COc1cc(/C=C2\SC(=S)N(NS(=O)(=O)c3ccc(C)cc3)C2=O)cc(OC)c1OC | inconclusive: 44.7 µM [inhibitor, partial curve]
CC(C)c1ccc(CNC(=O)CSc2nc3ccccc3o2)cc1 | inconclusive: 15.8 µM [inhibitor, full curve, poor fit]
CCN(CC)CCCN(C(=O)Cn1nnc(-c2ccc(OC)c(OC)c2)n1)C(C(=O)NC(C)(C)C)c1ccc(F)cc1 (stereo unspecified) | inconclusive: 44.7 µM [inhibitor, partial curve]
CC(Sc1n[nH]c(-c2cccs2)n1)C(=O)Nc1ccc(F)cc1 (stereo unspecified) | inactive
C#CCN(C[C@@H]1[C@@H](OC(=O)NCc2ccc(OC)c(OC)c2)[C@@H](OC(=O)NCc2ccc(OC)c(OC)c2)Cn2c(=O)ccc(=O)n21)S(=O)(=O)c1ccc(C)cc1 | inactive
O=C(Nc1ccc(Nc2ccncc2)cc1)c1ccc([N+](=O)[O-])cc1 | inactive
Nc1cc(=O)[nH]c(SCCOc2ccccc2)n1 | inconclusive: 89.1 µM [inhibitor, partial curve, poor fit]
Nc1nc(SCC(=O)Nc2ccccc2-c2ccccc2)n[nH]1 | inconclusive: 112 µM [inhibitor, single point]
Cc1cc(C)c2c(N=NN(C)C)[nH]nc2n1 | inconclusive: 89.1 µM [inhibitor, single point]

Structure (SMILES) | Potency
CC(Oc1ccccc1)C(=O)NC1=NCCS1 (stereo unspecified) | inconclusive: 70.8 µM [inhibitor, partial curve, poor fit]
COc1ccccc1NC(=O)c1cnc(N2CCCCC2)c2ccccc12 | inactive
O=C(CN1CCN(c2ccc([N+](=O)[O-])c3cnccc23)CC1)Nc1cccc(F)c1 | inactive
O=C(c1ccccc1)N1CCC(n2cc(-c3nc(C4CC4)no3)nn2)C1 (stereo unspecified) | inconclusive: 22.4 µM [inhibitor, full curve, poor fit]
CCCCCc1cc(=O)oc2c(C(CCN3CCCC(C)C3)c3ccc(OC)cc3)c(OC)cc(OC)c12 (stereo unspecified) | inconclusive: 56.2 µM [inhibitor, partial curve, poor fit]
COCCCNC(=O)CN(c1cc(Cl)ccc1OC)S(C)(=O)=O | inconclusive: 141 µM [inhibitor, partial curve, poor fit]
COc1cc2c(cc1OC)C1=CC3(C(=O)Nc4c(C)cccc43)C(C#N)=C(N)N1CC2 (stereo unspecified) | inconclusive: 100 µM [inhibitor, single point]
CCC/C=C/c1ccc(CN2C(C(C)C)C(=O)N(Cc3cn(CCC4OCCO4)nn3)CCS2(=O)=O)cc1 (stereo unspecified) | inconclusive: 89.1 µM [inhibitor, single point]
COc1ccc(-c2nc3c(Cl)cc(C(F)(F)F)cn3c2Cc2ccc(C)cc2)cc1OC | inconclusive: 35.5 µM [inhibitor, partial curve, poor fit]
COCCn1c(NCCO)nc2c1c(=O)[nH]c(=O)n2C | inconclusive: 70.8 µM [inhibitor, single point]
CCc1ccc(NC(=O)CC2C(=O)N(c3cccc(C)c3)C(=O)N2Cc2cccs2)cc1 (stereo unspecified) | inactive
O=C(CCC1NC(=O)c2ccccc2NC1=O)NC1CCCCCCC1 (stereo unspecified) | inconclusive: 100 µM [inhibitor, single point]
O=C1NC(c2ccc(-c3ccccc3[N+](=O)[O-])o2)C(C(=O)c2ccc(F)cc2)C(O)(C(F)(F)F)N1 (stereo unspecified) | inconclusive: 50.1 µM [inhibitor, single point]
O=C(Cn1nnc(-c2ccccc2)n1)NC(=O)NC1CCCC1 | inconclusive: 100 µM [inhibitor, single point]
O=C(COC(=O)c1ccc(Br)o1)Nc1cccc(S(=O)(=O)N2CCCCCC2)c1 | inconclusive: 63.1 µM [inhibitor, partial curve, poor fit]
Cc1ccc(-c2cc(C(=O)N3CC(C)CC(C)C3)c3ccccc3n2)o1 (stereo unspecified) | active: 35.5 µM
Cc1cc(/C=C2\SC(N)=NC2=O)c(C)n1-c1ccc(F)cc1 | inconclusive: 89.1 µM [inhibitor, partial curve, poor fit]
COc1ccc(-c2csc(Nc3ccccc3)[n+]2CC(O)c2ccc([N+](=O)[O-])cc2)cc1 (stereo unspecified) | inconclusive: 35.5 µM [inhibitor, partial curve, poor fit]
CCOC(=O)c1noc2nc(C)n(CC(=O)Nc3cc(Cl)ccc3OC)c(=O)c12 | inconclusive: 126 µM [inhibitor, partial curve, poor fit] and inconclusive: 1.78 µM [inhibitor, full curve, poor fit]

Looked up above.
`COc1ccc(-c2noc(C3CCCN(C(=O)CCc4ccccc4)C3)n2)cc1` (stereo unspecified) – Potency: inactive
`CC(Oc1ccccc1)C(=O)NC1=NCCS1` (stereo unspecified) – Potency: inconclusive: 70.8 µM [inhibitor, partial curve, poor fit]
`COc1ccc2sc(C)[n+](C)c2c1` – Potency: inconclusive: 20 µM [inhibitor, partial curve, poor fit]
